Measurements reported in patent US8299030 (dated 2012).

Assay: general procedure: Fmoc solid-phase peptide synthesis; Rink Amide AM resin; HBTU (HATU for PEG unit)
Conditions: whole synthesis, scale 0.25 mmol

## ClCH2CO-Lys-Cys(tBu)-Arg-Gly-Asp-Cys(tBu)-Phe-Cys-NH2
  crude mass: 295 mg

## ClCH2CO-Lys-Cys(tBu)-Arg-Gly-Asp-Cys(tBu)-Phe-Cys-(PEG)n-NH2 where n=1
  crude mass: 322 mg
